From the supplement of paper PMC12819154, “High-throughput peptide-centric local stability assay extends protein–ligand identification to membrane proteins, tissues and bacteria” (Nature Structural & Molecular Biology, 2025)
This is one part of the list. Most values lie at the level of the controls, where differences are scatter.

Protein sequences, listed by entry. Tags and fused reporters are not part of them. Lines headed by an entry give the natural chain unless they say otherwise; changes in a name come on top.
UniProt Q9H1K6: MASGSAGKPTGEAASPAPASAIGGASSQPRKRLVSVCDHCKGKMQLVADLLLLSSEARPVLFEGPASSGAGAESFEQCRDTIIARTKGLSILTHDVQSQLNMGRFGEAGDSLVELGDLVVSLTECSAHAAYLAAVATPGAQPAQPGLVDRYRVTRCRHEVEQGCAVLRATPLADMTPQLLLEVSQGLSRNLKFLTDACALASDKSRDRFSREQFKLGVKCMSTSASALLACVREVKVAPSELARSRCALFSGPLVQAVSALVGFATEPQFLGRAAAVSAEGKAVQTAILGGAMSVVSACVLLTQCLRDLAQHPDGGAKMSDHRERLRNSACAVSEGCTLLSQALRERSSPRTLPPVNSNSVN
UniProt Q9H1K0: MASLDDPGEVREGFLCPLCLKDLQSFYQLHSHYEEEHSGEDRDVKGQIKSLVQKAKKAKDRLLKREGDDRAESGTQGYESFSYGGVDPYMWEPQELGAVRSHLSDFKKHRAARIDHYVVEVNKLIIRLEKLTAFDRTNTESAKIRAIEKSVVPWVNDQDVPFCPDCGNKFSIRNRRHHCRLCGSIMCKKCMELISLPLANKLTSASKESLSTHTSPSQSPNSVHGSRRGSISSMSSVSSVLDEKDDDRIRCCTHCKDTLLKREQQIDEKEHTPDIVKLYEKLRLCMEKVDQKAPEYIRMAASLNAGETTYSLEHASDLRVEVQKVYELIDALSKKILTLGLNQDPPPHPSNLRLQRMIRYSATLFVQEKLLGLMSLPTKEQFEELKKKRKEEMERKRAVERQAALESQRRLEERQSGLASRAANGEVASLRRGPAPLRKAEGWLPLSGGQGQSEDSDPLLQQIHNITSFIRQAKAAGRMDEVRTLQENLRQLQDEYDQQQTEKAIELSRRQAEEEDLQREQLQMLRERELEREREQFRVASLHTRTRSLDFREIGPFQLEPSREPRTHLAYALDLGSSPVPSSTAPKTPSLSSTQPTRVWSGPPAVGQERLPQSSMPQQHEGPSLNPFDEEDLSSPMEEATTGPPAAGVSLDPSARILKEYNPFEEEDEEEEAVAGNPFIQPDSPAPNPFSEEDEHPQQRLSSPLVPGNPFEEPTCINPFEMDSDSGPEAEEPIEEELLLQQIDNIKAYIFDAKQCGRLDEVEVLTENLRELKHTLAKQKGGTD
UniProt Q9H0D6: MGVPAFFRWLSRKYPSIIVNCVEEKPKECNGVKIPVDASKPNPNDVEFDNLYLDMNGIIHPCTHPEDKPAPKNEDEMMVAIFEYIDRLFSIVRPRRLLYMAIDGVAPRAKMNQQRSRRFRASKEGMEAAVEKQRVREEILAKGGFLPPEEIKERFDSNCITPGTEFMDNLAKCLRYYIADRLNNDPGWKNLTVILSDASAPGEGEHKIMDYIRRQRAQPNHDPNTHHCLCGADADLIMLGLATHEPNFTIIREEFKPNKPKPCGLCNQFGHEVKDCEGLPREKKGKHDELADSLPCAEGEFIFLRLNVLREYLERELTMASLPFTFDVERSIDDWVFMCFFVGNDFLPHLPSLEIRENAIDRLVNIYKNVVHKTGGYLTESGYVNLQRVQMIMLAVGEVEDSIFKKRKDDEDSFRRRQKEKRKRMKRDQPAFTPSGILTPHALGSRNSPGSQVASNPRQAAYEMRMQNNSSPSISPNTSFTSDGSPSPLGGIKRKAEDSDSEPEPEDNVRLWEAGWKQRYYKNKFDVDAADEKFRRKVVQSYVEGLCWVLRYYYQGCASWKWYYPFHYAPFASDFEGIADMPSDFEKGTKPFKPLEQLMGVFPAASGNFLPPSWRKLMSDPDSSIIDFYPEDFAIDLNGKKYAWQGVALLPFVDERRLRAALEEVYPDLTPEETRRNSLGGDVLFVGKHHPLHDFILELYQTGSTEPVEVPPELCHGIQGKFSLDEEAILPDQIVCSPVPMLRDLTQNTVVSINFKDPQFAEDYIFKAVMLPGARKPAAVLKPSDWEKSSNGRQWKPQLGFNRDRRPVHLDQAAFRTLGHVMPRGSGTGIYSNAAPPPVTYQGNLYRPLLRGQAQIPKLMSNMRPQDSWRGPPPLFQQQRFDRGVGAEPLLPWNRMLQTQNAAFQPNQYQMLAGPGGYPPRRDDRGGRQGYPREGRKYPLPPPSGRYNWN
UniProt Q9GZY8: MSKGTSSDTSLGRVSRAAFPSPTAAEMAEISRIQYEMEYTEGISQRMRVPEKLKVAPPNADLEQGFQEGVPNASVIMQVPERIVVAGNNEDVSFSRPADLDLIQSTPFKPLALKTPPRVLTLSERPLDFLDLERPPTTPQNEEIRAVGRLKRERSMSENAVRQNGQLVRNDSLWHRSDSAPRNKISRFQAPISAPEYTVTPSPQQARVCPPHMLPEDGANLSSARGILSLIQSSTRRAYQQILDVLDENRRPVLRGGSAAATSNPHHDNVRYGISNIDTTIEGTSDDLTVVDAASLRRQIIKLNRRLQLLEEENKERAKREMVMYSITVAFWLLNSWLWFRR
UniProt Q9H0W8: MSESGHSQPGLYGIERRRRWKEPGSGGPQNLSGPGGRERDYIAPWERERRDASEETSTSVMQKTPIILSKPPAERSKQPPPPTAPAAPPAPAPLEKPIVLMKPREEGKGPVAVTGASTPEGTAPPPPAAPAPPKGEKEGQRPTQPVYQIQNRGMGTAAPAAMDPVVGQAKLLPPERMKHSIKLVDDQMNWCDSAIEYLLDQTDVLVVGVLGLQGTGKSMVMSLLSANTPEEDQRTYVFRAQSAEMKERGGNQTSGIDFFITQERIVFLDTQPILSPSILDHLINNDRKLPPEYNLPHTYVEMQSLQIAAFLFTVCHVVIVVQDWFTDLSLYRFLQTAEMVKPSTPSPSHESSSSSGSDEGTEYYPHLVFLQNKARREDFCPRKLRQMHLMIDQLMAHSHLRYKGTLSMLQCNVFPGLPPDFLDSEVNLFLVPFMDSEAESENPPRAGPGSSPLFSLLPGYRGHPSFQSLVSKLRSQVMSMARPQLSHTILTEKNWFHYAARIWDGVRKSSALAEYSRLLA
UniProt Q9H078: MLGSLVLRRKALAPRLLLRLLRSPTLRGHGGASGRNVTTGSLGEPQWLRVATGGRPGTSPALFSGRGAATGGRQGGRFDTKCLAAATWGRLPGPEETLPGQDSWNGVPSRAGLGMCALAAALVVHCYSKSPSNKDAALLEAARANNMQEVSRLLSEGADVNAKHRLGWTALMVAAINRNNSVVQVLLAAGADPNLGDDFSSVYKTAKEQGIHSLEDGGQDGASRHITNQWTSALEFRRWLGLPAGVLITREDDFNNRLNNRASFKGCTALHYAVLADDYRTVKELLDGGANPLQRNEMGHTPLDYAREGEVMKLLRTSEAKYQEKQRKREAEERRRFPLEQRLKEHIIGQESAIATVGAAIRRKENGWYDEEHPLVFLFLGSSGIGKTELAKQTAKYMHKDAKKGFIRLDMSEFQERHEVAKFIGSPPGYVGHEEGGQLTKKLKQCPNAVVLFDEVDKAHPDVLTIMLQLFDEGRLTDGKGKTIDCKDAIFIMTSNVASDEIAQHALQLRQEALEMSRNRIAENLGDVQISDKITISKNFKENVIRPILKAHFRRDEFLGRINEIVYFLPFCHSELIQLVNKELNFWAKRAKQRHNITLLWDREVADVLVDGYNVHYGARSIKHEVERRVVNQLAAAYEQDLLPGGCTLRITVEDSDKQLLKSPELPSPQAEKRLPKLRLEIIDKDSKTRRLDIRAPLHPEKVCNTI
UniProt Q9H2K0, whole entry, looked up: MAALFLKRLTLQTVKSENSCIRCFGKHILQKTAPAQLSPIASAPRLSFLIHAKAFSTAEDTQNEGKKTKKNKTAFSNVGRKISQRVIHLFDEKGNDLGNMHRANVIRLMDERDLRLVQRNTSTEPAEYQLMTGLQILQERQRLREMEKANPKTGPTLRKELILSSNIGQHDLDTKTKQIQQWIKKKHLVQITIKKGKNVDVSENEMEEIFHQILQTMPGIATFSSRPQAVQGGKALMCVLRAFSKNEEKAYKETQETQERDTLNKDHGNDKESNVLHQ
UniProt Q9BWG6: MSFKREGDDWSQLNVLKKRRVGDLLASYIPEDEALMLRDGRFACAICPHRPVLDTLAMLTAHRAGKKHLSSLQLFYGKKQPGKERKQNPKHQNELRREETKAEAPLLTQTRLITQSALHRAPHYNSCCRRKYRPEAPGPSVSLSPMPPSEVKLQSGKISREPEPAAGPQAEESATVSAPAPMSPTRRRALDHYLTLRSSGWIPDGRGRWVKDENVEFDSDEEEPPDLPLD
UniProt Q9BYE2: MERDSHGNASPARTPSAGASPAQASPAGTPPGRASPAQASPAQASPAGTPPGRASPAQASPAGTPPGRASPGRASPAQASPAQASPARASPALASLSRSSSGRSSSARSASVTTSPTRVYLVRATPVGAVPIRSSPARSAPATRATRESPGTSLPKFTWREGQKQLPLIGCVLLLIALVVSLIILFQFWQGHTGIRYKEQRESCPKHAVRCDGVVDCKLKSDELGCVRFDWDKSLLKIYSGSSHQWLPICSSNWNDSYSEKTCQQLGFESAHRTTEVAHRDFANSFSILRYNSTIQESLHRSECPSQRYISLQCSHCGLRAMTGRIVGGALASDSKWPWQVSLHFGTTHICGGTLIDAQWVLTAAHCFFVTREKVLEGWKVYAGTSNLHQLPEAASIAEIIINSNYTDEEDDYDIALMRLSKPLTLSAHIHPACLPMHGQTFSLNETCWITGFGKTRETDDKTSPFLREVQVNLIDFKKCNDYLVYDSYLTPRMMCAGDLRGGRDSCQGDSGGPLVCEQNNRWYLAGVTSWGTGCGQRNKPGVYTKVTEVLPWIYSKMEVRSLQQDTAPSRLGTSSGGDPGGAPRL
UniProt Q9H446: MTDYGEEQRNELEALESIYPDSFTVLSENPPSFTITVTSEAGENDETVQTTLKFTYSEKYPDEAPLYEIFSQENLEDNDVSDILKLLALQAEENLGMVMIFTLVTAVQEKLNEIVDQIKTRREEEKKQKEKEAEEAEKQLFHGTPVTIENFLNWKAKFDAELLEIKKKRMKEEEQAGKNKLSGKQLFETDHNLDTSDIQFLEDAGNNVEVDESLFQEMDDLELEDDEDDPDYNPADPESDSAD
UniProt Q9H2U1: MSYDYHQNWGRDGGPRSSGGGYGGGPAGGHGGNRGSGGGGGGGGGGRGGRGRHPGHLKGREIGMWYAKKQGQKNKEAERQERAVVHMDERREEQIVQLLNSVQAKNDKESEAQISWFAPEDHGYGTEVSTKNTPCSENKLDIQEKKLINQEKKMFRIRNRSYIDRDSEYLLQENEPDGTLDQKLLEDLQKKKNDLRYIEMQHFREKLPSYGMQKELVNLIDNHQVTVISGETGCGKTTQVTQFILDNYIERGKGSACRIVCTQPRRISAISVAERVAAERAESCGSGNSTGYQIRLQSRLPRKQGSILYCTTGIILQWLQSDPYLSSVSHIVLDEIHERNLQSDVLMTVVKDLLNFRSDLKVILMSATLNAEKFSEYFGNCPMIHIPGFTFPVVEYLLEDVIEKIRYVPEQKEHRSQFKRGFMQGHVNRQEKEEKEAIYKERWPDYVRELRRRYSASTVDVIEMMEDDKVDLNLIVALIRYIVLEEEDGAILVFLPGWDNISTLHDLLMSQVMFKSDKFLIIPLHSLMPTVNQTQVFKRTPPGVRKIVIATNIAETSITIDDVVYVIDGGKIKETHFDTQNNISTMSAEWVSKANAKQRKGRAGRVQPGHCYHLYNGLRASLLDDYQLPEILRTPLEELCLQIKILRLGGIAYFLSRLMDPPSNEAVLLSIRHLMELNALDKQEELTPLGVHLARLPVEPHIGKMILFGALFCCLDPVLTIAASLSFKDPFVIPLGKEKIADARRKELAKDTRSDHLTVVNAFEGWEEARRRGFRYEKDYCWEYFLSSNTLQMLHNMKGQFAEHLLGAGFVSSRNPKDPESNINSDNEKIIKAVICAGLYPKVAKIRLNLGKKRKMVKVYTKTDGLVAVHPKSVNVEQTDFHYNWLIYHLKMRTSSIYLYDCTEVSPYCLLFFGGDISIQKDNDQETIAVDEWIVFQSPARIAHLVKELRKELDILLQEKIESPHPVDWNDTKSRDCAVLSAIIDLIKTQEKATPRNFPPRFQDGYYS
UniProt Q9GZR2: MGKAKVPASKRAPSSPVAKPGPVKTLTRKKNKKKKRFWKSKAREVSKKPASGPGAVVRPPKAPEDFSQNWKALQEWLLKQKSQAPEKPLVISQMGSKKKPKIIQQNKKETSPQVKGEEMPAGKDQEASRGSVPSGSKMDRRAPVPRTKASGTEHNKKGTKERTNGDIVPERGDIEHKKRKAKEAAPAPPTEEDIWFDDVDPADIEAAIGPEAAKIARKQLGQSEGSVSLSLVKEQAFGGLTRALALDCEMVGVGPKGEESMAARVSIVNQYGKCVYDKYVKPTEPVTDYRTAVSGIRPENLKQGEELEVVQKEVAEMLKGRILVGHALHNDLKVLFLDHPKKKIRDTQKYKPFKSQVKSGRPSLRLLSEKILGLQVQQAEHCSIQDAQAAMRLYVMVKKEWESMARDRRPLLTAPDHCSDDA

Each target was assayed with CN[C@@H]1C[C@H]2O[C@@](C)([C@@H]1OC)n1c3ccccc3c3c4c(c5c6ccccc6n2c5c31)C(=O)NC4 [staurosporine] (assay: log2 fold change of tryptic peptide abundance, ligand vs vehicle (limited proteolysis) (log2 ratio); higher = more trypsin-susceptible (destabilized)). Conditions: ligand concentration: 20 uM; sample: K562 cleared lysate; digestion: 4 min, 22 C (HT-PELSA RT4min, Orbitrap Astral).

Target	log2 fold change
TLNRD1 (peptide sequence: NSACAVSEGCTLLSQALR, peptide start residue: 328) (UniProt Q9H1K6)	0.3
UniProt Q9H1K0 (peptide sequence: QCGRLDEVEVLTENLR, peptide start residue: 755)	-0.26
XRN2 (peptide sequence: KPAAVLKPSDWEK, peptide start residue: 776) (UniProt Q9H0D6)	0.758
UniProt Q9C0B2 (peptide sequence: TQAFHLR, peptide start residue: 72)	0.266
C1orf198 (peptide sequence: ASMAAAIAASR, peptide start residue: 2) (UniProt Q9H425)	0.189
WDR12 (peptide sequence: YSPTTSHVGA, peptide start residue: 414) (UniProt Q9GZL7)	0.118
MFF (peptide sequence: GGSAAATSNPHHDNVR, peptide start residue: 256) (UniProt Q9GZY8)	0.339
UniProt Q9H0W8 (peptide sequence: GMGTAAPAAMDPVVGQAK, peptide start residue: 153)	-0.294
CLPB (peptide sequence: LDMSEFQER, peptide start residue: 409) (UniProt Q9H078)	0.299
FTO (peptide sequence: LFTVPWPVK, peptide start residue: 113) (UniProt Q9C0B1)	0.326
MRPL4 (peptide sequence: HQTLVLTLPTVAFLEDK, peptide start residue: 256) (UniProt Q9BYD3)	0.601
SGPP1 (peptide sequence: NGLAAELGPASPR, peptide start residue: 91) (UniProt Q9BX95)	-0.131
HDAC8 (peptide sequence: IQQILNYIK, peptide start residue: 362) (UniProt Q9BY41)	0.288
UniProt Q9H201 (peptide sequence: NIVHNYSEAEIK, peptide start residue: 12)	0.0153
INTS2 (peptide sequence: LLLPCLVR, peptide start residue: 44) (UniProt Q9H0H0)	0.07
MTIF3 (peptide sequence: DTLNKDHGNDKESNVLHQ, peptide start residue: 261) (UniProt Q9H2K0)	-0.301
SCNM1 (peptide sequence: AEAPLLTQTR, peptide start residue: 102) (UniProt Q9BWG6)	0.224
UniProt Q9BYE2 (peptide sequence: NKPGVYTK, peptide start residue: 224)	0.0365
RAB33B (peptide sequence: IQLWDTAGQER, peptide start residue: 84) (UniProt Q9H082)	0.193
ARHGAP39 (peptide sequence: TVWHRPQGCDIIPLAK, peptide start residue: 90) (UniProt Q9C0H5)	-0.085
RWDD1 (peptide sequence: AKFDAELLEIK, peptide start residue: 156) (UniProt Q9H446)	-0.118
DDX24 (peptide sequence: CLVVDEADRMVEK, peptide start residue: 467) (UniProt Q9GZR7)	-0.257
KIF13A (peptide sequence: TLNSNDPVQNVVQVLEK, peptide start residue: 591) (UniProt Q9H1H9)	-0.456
DHX36 (peptide sequence: AVVHMDER, peptide start residue: 83) (UniProt Q9H2U1)	-0.31
ENKD1 (peptide sequence: LDLLTSDR, peptide start residue: 40) (UniProt Q9H0I2)	0.172
CHMP4A (peptide sequence: AALQALRR, peptide start residue: 61) (UniProt Q9BY43)	-0.676
BRD8 (peptide sequence: LLSTGPTEPWSIR, peptide start residue: 10) (UniProt Q9H0E9)	-0.717
REXO4 (peptide sequence: QKSQAPEKPLVISQMGSK, peptide start residue: 80) (UniProt Q9GZR2)	0.627

Reformatted with bars between the fields: part of the list above
Target | log2 fold change
XRN2 (peptide sequence: KPAAVLKPSDWEK, peptide start residue: 776) (UniProt Q9H0D6) | 0.758
UniProt Q9C0B2 (peptide sequence: TQAFHLR, peptide start residue: 72) | 0.266
